# US20260327264A1, “PEPTIDE INHIBITORS OF INTERLEUKIN-23 RECEPTOR” (Zealand Pharma A/S, priority 2023, published 2026)
# Part of at least one peptide drawing is inferred or uncertain, most often the ends.
# Tested on: IL-23 mediated STAT3 signalling (DB cells)
# Test: Functional inhibition of IL-23 mediated STAT3 signalling (phospho-STAT3 Tyr705) in DB cells
# Type: cell-based, human
# From the text: Upon binding of IL-23, the IL-23R forms a heterodimer signalling complex together with IL-12R β1, which through the JAK2/STAT3 pathway promotes phosphorylation of STAT3 to form phospho-STAT3.
# For compounds tested in this assay, the response was normalized relative to control values to calculate the IC50 and maximal inhibitory response from a concentration response curve of the compound in presence of a fixed concentration of human IL-23.
# The assay procedure was as follows. […] Following preincubation of the DB cells with inhibitor for 15 min in a cell incubator (37° C., 5% CO2), 20 μL of the prepared 3× the EC80 of hIL-23 solution was added to each well and incubated for 90 min in a cell incubator (37° C., 5% CO2). For some wells buffer only or IL-23 only corresponding to the EC80 was added to obtain readouts needed for normalization. […] Detection of the phospho-STAT3 level in the cell lysate from the individual wells was determined using the MSD STAT3 kit (Cat #K150SVD, Mesoscale) and read on a Meso QuickPlex SQ 120 plate reader (Mesoscale).
# For data analysis raw data counts from the Meso QuickPlex SQ 120 plate reader were normalized relative to the response by the EC80 of hIL-23 alone (no compound added) and the buffer level.
structure (smiles),measurement,setting,value
"CC(=O)N[C@H]1CCSC[C@@H](C(=O)N[C@@H](Cc2ccc(OCCN)cc2)C(=O)N[C@@H](Cc2c[nH]c3ccccc23)C(=O)N[C@@](C)(CCCCN)C(=O)N[C@@H](CCC(=O)O)C(=O)N[C@@H](CC(N)=O)C(=O)NCC(N)=O)NC(=O)[C@H](CCC(N)=O)NC(=O)[C@H](Cc2c[nH]c3ccccc23)NC(=O)[C@H]([C@@H](C)O)NC(=O)[C@H](CCC(N)=O)NC1=O [Compound C, [Ac]-[Abu](16i)QTWQC(16i)[Y(2-aminoethoxy)]W[2-Me-Lys]ENG-[NH2], reference compound]",IC50,"Table 3-2, EC80 of hIL-23, read-out: hIL-23 (pSTAT3) antagonist IC50",0.013 µM
same,hIL-23 (pSTAT3) antagonist % inhibition,"Table 3-2, maximal inhibitory response, EC80 of hIL-23",99%
